The other results are listed elsewhere or left out.
Compound: CC1Cc2ccccc2N1C(=O)C1CCCN(C1)C(=O)CCl (mixture of isomers) [TRIM25 ligand 11 (diastereomer mixture)]
Test: probe-labelled cysteine peptide fold change vs DMSO (competition) (log2 fold change); higher = less target engagement (more negative = stronger competition)
Settings: THP-1, incubation time: 4 h
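Also: competitive chemoproteomic profiling in live THP-1 cells with an iodoacetamide desthiobiotin (IA-DTB) probe, comparing probe-labelled peptide intensities in compound-treated cells against DMSO-treated controls.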

Chains of the proteins cited; added tags and fusions are not shown. Lines headed by an entry give the natural chain unless they say otherwise; changes in a name come on top.
UniProt Q96PD5: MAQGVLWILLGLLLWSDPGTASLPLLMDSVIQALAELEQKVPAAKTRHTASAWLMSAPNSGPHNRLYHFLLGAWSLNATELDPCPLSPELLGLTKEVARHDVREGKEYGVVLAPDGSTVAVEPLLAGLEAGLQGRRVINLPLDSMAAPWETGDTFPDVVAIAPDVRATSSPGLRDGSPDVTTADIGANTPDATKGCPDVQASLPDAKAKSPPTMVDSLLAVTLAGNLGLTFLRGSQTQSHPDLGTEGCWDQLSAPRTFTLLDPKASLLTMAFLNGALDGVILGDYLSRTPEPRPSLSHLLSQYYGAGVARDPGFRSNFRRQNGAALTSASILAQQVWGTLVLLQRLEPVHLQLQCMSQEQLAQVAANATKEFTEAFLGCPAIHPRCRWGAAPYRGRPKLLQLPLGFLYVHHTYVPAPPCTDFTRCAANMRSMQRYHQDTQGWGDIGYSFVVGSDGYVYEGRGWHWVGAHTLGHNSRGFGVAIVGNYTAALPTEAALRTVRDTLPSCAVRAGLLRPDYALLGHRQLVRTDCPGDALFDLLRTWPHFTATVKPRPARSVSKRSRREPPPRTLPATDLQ
UniProt O95394: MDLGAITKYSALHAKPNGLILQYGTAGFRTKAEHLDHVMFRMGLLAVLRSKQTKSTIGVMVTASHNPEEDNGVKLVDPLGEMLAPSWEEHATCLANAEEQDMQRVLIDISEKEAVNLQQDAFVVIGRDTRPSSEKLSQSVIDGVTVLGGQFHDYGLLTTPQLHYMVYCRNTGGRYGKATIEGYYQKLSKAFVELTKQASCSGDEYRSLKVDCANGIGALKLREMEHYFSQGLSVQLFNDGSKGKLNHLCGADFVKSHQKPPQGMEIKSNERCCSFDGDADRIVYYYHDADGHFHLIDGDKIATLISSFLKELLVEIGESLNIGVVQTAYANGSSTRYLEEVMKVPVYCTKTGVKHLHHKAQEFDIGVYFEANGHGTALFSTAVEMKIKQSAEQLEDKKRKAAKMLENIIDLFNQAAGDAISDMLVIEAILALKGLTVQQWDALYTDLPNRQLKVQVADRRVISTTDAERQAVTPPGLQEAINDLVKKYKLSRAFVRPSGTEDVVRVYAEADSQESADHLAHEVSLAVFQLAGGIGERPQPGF
UniProt O14832: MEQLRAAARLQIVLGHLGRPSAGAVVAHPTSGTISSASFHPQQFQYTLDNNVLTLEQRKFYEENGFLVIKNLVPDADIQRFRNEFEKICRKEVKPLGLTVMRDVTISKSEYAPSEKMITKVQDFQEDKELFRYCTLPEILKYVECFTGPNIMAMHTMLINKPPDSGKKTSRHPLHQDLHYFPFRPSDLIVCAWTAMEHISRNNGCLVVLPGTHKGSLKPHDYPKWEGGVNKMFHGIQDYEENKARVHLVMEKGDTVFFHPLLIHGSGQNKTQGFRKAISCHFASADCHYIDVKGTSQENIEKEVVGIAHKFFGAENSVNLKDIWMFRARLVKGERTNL

| Target | probe-labelled cysteine peptide fold change (10 µM) | probe-labelled cysteine peptide fold change (50 µM) |
| --- | --- | --- |
| PHIP_Q8WWQ0_79_HLAPDHLLQICHR (UniProt Q8WWQ0) | 0.0168 | 0.116 |
| PGLYRP2_Q96PD5_379_EFTEAFLGCPAIHPR (UniProt Q96PD5) | 0.293 | 0.227 |
| PEX14_O75381_342_MEVQGEEEKREDKEDEEDEEDDDVSHVDEEDCLGVQR (UniProt O75381) | -0.255 | -0.116 |
| PGM3_O95394_200_QASCSGDEYR (UniProt O95394) | -0.00374 | -0.097 |
| PHYH_O14832_145_YVECFTGPNIMAMHTMLINKPPDSGKK (UniProt O14832) | -0.148 | -0.117 |

— the supplement of paper PMC12067093, “Discovery and optimisation of a covalent ligand for TRIM25 and its application to targeted protein ubiquitination” (Chemical Science, 2025)
